{"source": "the supplement of paper PMC8728848", "binders": {"B1": {"name": "SHCBP1-GST (Homo sapiens), Q8NEM2 (protein)", "chain": "MADGSLTGGGLEAAAMAPERMGWAVEQELASLEKGLFQDEDSCSDCSYRDKPGSSLQSFMPEGKTFFPEIFQTNQLLFYERFRAYQDYILADCKASEVQEFTAEFLEKVLEPSGWRAVWHTNVFKVLVEITDVDFAALKAVVRLAEPYLCDSQVSTFTMECMKELLDLKEHRLPLQELWVVFDDSGVFDQTALAIEHVRFFYQNIWRSWDEEEEDEYDYFVRCVEPRLRLHYDILEDRVPSGLIVDYHNLLSQCEESYRKFLNLRSSLSNCNSDSEQENISMVEGLKLYSEMEQLKQKLKLIENPLLRYVFGYQKNSNIQAKGVRSSGQKITHVVSSTMMAGLLRSLLTDRLCQEPGEEEREIQFHSDPLSAINACFEGDTVIVCPGHYVVHGTFSIADSIELEGYGLPDDIVIEKRGKGDTFVDCTGADIKISGIKFVQHDAVEGILIVHRGKTTLENCVLQCETTGVTVRTSAEFLMKNSDLYGAKGAGIEIYPGSQCTLSDNGIHHCKEGILIKDFLDEHYDIPKISMVNNIIHNNEGYGVVLVKPTIFSDLQENAEDGTEENKALKIQTSGEPDVAERVDLEELIECATGKMELCARTDPSEQVEGNCEIVNELIAASTQKGQIKKKRLSELGITQADDNLMSQEMFVGIVGNQFKWNGKGSFGTFLF"}}, "test_in_all_cases": "glycan array binding signal (z-score within array); higher = stronger binding", "settings_in_all_cases": "glycan notation: IUPAC condensed, linker removed", "key": {"Fuc(a1-2)Gal": {"target": "Fuc(a1-2)Gal", "method_in_brief": "(§1)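 The binding signal is a Z-score computed within each array and averaged over linkers. Arrays of the same protein sequence at different concentrations or buffers were also averaged together. Data originate from 3228 arrays in the Consortium for Functional Glycomics database, kept only where the protein sequence was available.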"}, "Fuc(a1-2)Gal(b1-3)GalNAc": {"target": "Fuc(a1-2)Gal(b1-3)GalNAc", "method_in_brief": "as §1"}, "[1]": {"target": "Fuc(a1-2)Gal(b1-3)GalNAc(a1-3)[Fuc(a1-2)]Gal(b1-4)Glc", "method_in_brief": "as §1"}, "[2]": {"target": "Fuc(a1-2)Gal(b1-3)GalNAc(a1-3)[Fuc(a1-2)]Gal(b1-4)GlcNAc", "method_in_brief": "as §1"}, "[3]": {"target": "Fuc(a1-2)Gal(b1-3)GalNAc(b1-3)Gal", "method_in_brief": "as §1"}, "[4]": {"target": "Fuc(a1-2)Gal(b1-3)GalNAc(b1-3)Gal(a1-4)Gal(b1-4)Glc", "method_in_brief": "as §1"}, "[5]": {"target": "Fuc(a1-2)Gal(b1-3)GalNAc(b1-4)[Neu5Ac(a2-3)]Gal(b1-4)Glc", "method_in_brief": "as §1"}, "Fuc(a1-2)Gal(b1-3)GlcNAc": {"target": "Fuc(a1-2)Gal(b1-3)GlcNAc", "method_in_brief": "as §1"}, "[6]": {"target": "Fuc(a1-2)Gal(b1-3)GlcNAc(b1-2)Man(a1-3)[Fuc(a1-2)Gal(b1-3)GlcNAc(b1-2)Man(a1-6)]Man(b1-4)GlcNAc(b1-4)GlcNAc", "method_in_brief": "as §1"}, "[7]": {"target": "Fuc(a1-2)Gal(b1-3)GlcNAc(b1-2)Man(a1-3)[Fuc(a1-2)Gal(b1-3)GlcNAc(b1-2)Man(a1-6)]Man(b1-4)GlcNAc(b1-4)[Fuc(a1-6)]GlcNAc", "method_in_brief": "as §1"}, "[8]": {"target": "Fuc(a1-2)Gal(b1-3)GlcNAc(b1-3)Gal(b1-4)Glc", "method_in_brief": "as §1"}, "[9]": {"target": "Fuc(a1-2)Gal(b1-3)GlcNAc(b1-3)GalNAc", "method_in_brief": "as §1"}, "[10]": {"target": "Fuc(a1-2)Gal(b1-3)GlcNAc(b1-3)[Fuc(a1-2)Gal(b1-3)GlcNAc(b1-6)]GalNAc", "method_in_brief": "as §1"}, "[11]": {"target": "Fuc(a1-2)Gal(b1-3)GlcNAc(b1-3)[Gal(b1-4)GlcNAc(b1-6)]Gal(b1-4)Glc", "method_in_brief": "as §1"}, "[12]": {"target": "Fuc(a1-2)Gal(b1-3)GlcNAc(b1-3)[Neu5Ac(a2-6)Gal(b1-4)GlcNAc(b1-6)]Gal(b1-4)Glc", "method_in_brief": "as §1"}, "[13]": {"target": "Fuc(a1-2)Gal(b1-3)GlcNAc6S", "method_in_brief": "as §1"}, "[14]": {"target": "Fuc(a1-2)Gal(b1-3)[Fuc(a1-4)]GlcNAc", "method_in_brief": "as §1"}, "[15]": {"target": "Fuc(a1-2)Gal(b1-3)[Fuc(a1-4)]GlcNAc(b1-2)Man(a1-3)[Fuc(a1-2)Gal(b1-3)[Fuc(a1-4)]GlcNAc(b1-2)Man(a1-3)]Man(b1-4)GlcNAc(b1-4)GlcNAc", "method_in_brief": "as §1"}, "[16]": {"target": "Fuc(a1-2)Gal(b1-3)[Fuc(a1-4)]GlcNAc(b1-2)Man(a1-3)[Fuc(a1-2)Gal(b1-3)[Fuc(a1-4)]GlcNAc(b1-2)Man(a1-6)]Man(b1-4)GlcNAc(b1-4)[Fuc(a1-6)]GlcNAc(b1-4)[Fuc(a1-6)]GlcNAc", "method_in_brief": "as §1"}, "[17]": {"target": "Fuc(a1-2)Gal(b1-3)[Fuc(a1-4)]GlcNAc(b1-3)[Fuc(a1-3)[Gal(b1-4)]GlcNAc(b1-6)]Gal(b1-4)Glc", "method_in_brief": "as §1"}, "[18]": {"target": "Fuc(a1-2)Gal(b1-3)[Fuc(a1-4)]GlcNAc(b1-3)[Gal(b1-4)GlcNAc(b1-6)]Gal(b1-4)Glc", "method_in_brief": "as §1"}, "[19]": {"target": "Fuc(a1-2)Gal(b1-4)Fuc(a1-3)]GlcNAc(b1-2)Man(a1-3)[Fuc(a1-2)Gal(b1-4)[Fuc(a1-3)]GlcNAc(b1-2)Man(a1-6)]Man(b1-4)GlcNAc(b1-4)GlcNAc", "method_in_brief": "as §1"}, "Fuc(a1-2)Gal(b1-4)Glc": {"target": "Fuc(a1-2)Gal(b1-4)Glc", "method_in_brief": "as §1"}, "Fuc(a1-2)Gal(b1-4)Glc6S": {"target": "Fuc(a1-2)Gal(b1-4)Glc6S", "method_in_brief": "as §1"}, "Fuc(a1-2)Gal(b1-4)GlcNAc": {"target": "Fuc(a1-2)Gal(b1-4)GlcNAc", "method_in_brief": "as §1"}, "[20]": {"target": "Fuc(a1-2)Gal(b1-4)GlcNAc(b1-2)Man", "method_in_brief": "as §1"}, "[21]": {"target": "Fuc(a1-2)Gal(b1-4)GlcNAc(b1-2)Man(a1-3)[Fuc(a1-2)Gal(b1-4)GlcNAc(b1-2)Man(a1-6)]Man(b1-4)GlcNAc(b1-4)GlcNAc", "method_in_brief": "as §1"}, "[22]": {"target": "Fuc(a1-2)Gal(b1-4)GlcNAc(b1-2)Man(a1-3)[Fuc(a1-2)Gal(b1-4)GlcNAc(b1-2)Man(a1-6)]Man(b1-4)GlcNAc(b1-4)[Fuc(a1-6)]GlcNAc", "method_in_brief": "as §1"}, "[23]": {"target": "Fuc(a1-2)Gal(b1-4)GlcNAc(b1-2)[Fuc(a1-2)Gal(b1-4)GlcNAc(b1-4)]Man(a1-3)[Fuc(a1-2)Gal(b1-4)GlcNAc(b1-2)Man(a1-6)]Man(b1-4)GlcNAc(b1-4)GlcNAc", "method_in_brief": "as §1"}, "[24]": {"target": "Fuc(a1-2)Gal(b1-4)GlcNAc(b1-3)Gal(b1-4)GlcNAc", "method_in_brief": "as §1"}}, "note": "This is one part of the list.", "data": [{"binder": "B1", "values": [{"measurement": "glycan array binding signal (z-score)", "setting": "Fuc(a1-2)Gal", "value": -0.698}, {"measurement": "glycan array binding signal (z-score)", "setting": "Fuc(a1-2)Gal(b1-3)GalNAc", "value": -0.317}, {"measurement": "glycan array binding signal (z-score)", "setting": "[1]", "value": -0.92}, {"measurement": "glycan array binding signal (z-score)", "setting": "[2]", "value": -0.781}, {"measurement": "glycan array binding signal (z-score)", "setting": "[3]", "value": 1.05}, {"measurement": "glycan array binding signal (z-score)", "setting": "[4]", "value": -0.164}, {"measurement": "glycan array binding signal (z-score)", "setting": "[5]", "value": -0.821}, {"measurement": "glycan array binding signal (z-score)", "setting": "Fuc(a1-2)Gal(b1-3)GlcNAc", "value": -0.695}, {"measurement": "glycan array binding signal (z-score)", "setting": "[6]", "value": 0.369}, {"measurement": "glycan array binding signal (z-score)", "setting": "[7]", "value": 0.265}, {"measurement": "glycan array binding signal (z-score)", "setting": "[8]", "value": -0.116}, {"measurement": "glycan array binding signal (z-score)", "setting": "[9]", "value": -1.22}, {"measurement": "glycan array binding signal (z-score)", "setting": "[10]", "value": 0.926}, {"measurement": "glycan array binding signal (z-score)", "setting": "[11]", "value": 1.25}, {"measurement": "glycan array binding signal (z-score)", "setting": "[12]", "value": -0.751}, {"measurement": "glycan array binding signal (z-score)", "setting": "[13]", "value": -0.806}, {"measurement": "glycan array binding signal (z-score)", "setting": "[14]", "value": 0.085}, {"measurement": "glycan array binding signal (z-score)", "setting": "[15]", "value": 0.999}, {"measurement": "glycan array binding signal (z-score)", "setting": "[16]", "value": -0.004}, {"measurement": "glycan array binding signal (z-score)", "setting": "[17]", "value": -0.169}, {"measurement": "glycan array binding signal (z-score)", "setting": "[18]", "value": -0.384}, {"measurement": "glycan array binding signal (z-score)", "setting": "[19]", "value": 1.07}, {"measurement": "glycan array binding signal (z-score)", "setting": "Fuc(a1-2)Gal(b1-4)Glc", "value": -0.192}, {"measurement": "glycan array binding signal (z-score)", "setting": "Fuc(a1-2)Gal(b1-4)Glc6S", "value": -0.251}, {"measurement": "glycan array binding signal (z-score)", "setting": "Fuc(a1-2)Gal(b1-4)GlcNAc", "value": -0.448}, {"measurement": "glycan array binding signal (z-score)", "setting": "[20]", "value": -0.583}, {"measurement": "glycan array binding signal (z-score)", "setting": "[21]", "value": 1.65}, {"measurement": "glycan array binding signal (z-score)", "setting": "[22]", "value": 0.201}, {"measurement": "glycan array binding signal (z-score)", "setting": "[23]", "value": 0.511}, {"measurement": "glycan array binding signal (z-score)", "setting": "[24]", "value": -0.943}]}]}
